# Experimental data from publication PMC8160739, “Mycobacterium tuberculosis Binds Human Serum Amyloid A, and the Interaction Modulates the Colonization of Human Macrophages and the Transcriptional Response of the Pathogen” (Cells, 2021).
# Sequences of proteins named here, by UniProt entry; tags and fusion partners are left off.
# UniProt P9WPU7: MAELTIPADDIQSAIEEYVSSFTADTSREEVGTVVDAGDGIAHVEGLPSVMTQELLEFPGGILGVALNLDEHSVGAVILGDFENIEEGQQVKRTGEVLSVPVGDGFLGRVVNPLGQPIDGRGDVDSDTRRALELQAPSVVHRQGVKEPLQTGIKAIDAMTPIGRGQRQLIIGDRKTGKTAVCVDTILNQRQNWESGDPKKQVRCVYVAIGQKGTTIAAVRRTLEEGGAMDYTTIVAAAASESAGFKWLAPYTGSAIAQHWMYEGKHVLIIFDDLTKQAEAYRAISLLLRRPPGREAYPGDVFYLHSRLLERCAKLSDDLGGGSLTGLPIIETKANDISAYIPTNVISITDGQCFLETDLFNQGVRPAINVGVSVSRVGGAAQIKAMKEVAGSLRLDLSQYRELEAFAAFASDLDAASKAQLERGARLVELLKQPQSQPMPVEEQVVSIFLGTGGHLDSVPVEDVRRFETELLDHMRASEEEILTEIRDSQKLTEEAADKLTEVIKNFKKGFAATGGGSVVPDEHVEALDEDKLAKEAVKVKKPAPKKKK
# Results are given in words; binding and its absence hold for the method and conditions named. In cells and extracts the contact can be indirect. These calls come from enrichment with a bait or labelling near it, and not all partners need be listed.
# Molecular target: T1, recombinant human serum amyloid A (SAA1) (human) (UniProt P0DJI8)
# T1 sequence: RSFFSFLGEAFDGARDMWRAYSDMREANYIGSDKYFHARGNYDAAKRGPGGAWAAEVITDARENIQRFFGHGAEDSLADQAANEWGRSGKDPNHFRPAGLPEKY
# Experiment: affinity purification with mass spectrometry; only the target purified
substance,measurement,value
"AtpA (Rv1308; probable ATP synthase alpha chain AtpA), native, from Mtb whole-cell extract (from UniProt P9WPU7 1-549)",binding,binds
